{"source": "paper PMC13170247", "binders": {"B1": {"name": "SMARCAL1 (protein, UniProt Q9NZC9 1-954)", "chain": "MSLPLTEEQRKKIEENRQKALARRAEKLLAEQHQRTSSGTSIAGNPFQAKQGPSQNFPRESCKPVSHGVIFKQQNLSSSSNADQRPHDSHSFQAKGIWKKPEEMPTACPGHSPRSQMALTGISPPLAQSPPEVPKQQLLSYELGQGHAQASPEIRFTPFANPTHKPLAKPKSSQETPAHSSGQPPRDAKLEAKTAKASPSGQNISYIHSSSESVTPRTEGRLQQKSGSSVQKGVNSQKGKCVRNGDRFQVLIGYNAELIAVFKTLPSKNYDPDTKTWNFSMNDYSALMKAAQSLPTVNLQPLEWAYGSSESPSTSSEGQAGLPSAPSLSFVKGRCMLISRAYFEADISYSQDLIALFKQMDSRRYDVKTRKWSFLLEEHSKLIAKVRCLPQVQLDPLPTTLTLAFASQLKKTSLSLTPDVPEADLSEVDPKLVSNLMPFQRAGVNFAIAKGGRLLLADDMGLGKTIQAICIAAFYRKEWPLLVVVPSSVRFTWEQAFLRWLPSLSPDCINVVVTGKDRLTAGLINIVSFDLLSKLEKQLKTPFKVVIIDESHFLKNSRTARCRAAMPVLKVAKRVILLSGTPAMSRPAELYTQIIAVKPTFFPQFHAFGLRYCDAKRMPWGWDYSGSSNLGELKLLLEEAVMLRRLKSDVLSQLPAKQRKIVVIAPGRINARTRAALDAAAKEMTTKDKTKQQQKDALILFFNRTAEAKIPSVIEYILDLLESGREKFLVFAHHKVVLDAITQELERKHVQHIRIDGSTSSAEREDLCQQFQLSERHAVAVLSITAANMGLTFSSADLVVFAELFWNPGVLIQAEDRVHRIGQTSSVGIHYLVAKGTADDYLWPLIQEKIKVLAEAGLSETNFSEMTESTDYLYKDPKQQKIYDLFQKSFEKEGSDMELLEAAESFDPGSASGTSGSSSQNMGDTLDESSLTASPQKKRRFEFFDNWDSFTSPL"}}, "biological_target": "T1, HPV16 E1 (HA-tagged) (HPV16) (UniProt P03114)", "T1 sequence": "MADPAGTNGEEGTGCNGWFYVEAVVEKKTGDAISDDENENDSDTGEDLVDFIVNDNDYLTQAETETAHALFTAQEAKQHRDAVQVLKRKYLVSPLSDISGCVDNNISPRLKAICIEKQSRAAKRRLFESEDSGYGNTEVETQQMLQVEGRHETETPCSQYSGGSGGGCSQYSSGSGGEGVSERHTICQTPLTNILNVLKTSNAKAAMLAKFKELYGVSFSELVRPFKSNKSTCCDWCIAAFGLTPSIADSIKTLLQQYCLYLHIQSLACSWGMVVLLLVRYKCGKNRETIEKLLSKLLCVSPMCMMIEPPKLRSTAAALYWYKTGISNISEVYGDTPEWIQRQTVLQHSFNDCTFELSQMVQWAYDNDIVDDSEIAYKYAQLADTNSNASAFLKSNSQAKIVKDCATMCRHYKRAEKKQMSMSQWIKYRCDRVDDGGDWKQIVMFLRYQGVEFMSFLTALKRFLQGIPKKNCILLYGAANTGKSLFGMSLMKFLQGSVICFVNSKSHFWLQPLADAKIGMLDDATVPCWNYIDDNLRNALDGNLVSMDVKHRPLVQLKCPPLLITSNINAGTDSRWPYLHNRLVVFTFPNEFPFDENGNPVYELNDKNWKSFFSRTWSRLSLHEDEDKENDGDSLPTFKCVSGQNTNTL", "experiment": "co-IP; C33a cells transfected with pOri and one viral protein alone (HA-E1 or E2); 500 µg lysate in 0.5% NP-40, 50 mM Tris pH 7.8, 150 mM NaCl; antibody (HA, E2 or SMARCAL1) overnight at 4°C, protein A beads, western blot", "note": "These are yes or no findings as the source states them, for the method shown. In cells and extracts the contact can be indirect. Tags and fused reporters may be left off the sequences shown."}
{"binder": "B1", "values": [{"measurement": "binding", "result": "no binding"}]}
